This passage reports binding results from publication PMC11148086.

Chains of the proteins cited; added tags and fusions are not shown.
UniProt P51587: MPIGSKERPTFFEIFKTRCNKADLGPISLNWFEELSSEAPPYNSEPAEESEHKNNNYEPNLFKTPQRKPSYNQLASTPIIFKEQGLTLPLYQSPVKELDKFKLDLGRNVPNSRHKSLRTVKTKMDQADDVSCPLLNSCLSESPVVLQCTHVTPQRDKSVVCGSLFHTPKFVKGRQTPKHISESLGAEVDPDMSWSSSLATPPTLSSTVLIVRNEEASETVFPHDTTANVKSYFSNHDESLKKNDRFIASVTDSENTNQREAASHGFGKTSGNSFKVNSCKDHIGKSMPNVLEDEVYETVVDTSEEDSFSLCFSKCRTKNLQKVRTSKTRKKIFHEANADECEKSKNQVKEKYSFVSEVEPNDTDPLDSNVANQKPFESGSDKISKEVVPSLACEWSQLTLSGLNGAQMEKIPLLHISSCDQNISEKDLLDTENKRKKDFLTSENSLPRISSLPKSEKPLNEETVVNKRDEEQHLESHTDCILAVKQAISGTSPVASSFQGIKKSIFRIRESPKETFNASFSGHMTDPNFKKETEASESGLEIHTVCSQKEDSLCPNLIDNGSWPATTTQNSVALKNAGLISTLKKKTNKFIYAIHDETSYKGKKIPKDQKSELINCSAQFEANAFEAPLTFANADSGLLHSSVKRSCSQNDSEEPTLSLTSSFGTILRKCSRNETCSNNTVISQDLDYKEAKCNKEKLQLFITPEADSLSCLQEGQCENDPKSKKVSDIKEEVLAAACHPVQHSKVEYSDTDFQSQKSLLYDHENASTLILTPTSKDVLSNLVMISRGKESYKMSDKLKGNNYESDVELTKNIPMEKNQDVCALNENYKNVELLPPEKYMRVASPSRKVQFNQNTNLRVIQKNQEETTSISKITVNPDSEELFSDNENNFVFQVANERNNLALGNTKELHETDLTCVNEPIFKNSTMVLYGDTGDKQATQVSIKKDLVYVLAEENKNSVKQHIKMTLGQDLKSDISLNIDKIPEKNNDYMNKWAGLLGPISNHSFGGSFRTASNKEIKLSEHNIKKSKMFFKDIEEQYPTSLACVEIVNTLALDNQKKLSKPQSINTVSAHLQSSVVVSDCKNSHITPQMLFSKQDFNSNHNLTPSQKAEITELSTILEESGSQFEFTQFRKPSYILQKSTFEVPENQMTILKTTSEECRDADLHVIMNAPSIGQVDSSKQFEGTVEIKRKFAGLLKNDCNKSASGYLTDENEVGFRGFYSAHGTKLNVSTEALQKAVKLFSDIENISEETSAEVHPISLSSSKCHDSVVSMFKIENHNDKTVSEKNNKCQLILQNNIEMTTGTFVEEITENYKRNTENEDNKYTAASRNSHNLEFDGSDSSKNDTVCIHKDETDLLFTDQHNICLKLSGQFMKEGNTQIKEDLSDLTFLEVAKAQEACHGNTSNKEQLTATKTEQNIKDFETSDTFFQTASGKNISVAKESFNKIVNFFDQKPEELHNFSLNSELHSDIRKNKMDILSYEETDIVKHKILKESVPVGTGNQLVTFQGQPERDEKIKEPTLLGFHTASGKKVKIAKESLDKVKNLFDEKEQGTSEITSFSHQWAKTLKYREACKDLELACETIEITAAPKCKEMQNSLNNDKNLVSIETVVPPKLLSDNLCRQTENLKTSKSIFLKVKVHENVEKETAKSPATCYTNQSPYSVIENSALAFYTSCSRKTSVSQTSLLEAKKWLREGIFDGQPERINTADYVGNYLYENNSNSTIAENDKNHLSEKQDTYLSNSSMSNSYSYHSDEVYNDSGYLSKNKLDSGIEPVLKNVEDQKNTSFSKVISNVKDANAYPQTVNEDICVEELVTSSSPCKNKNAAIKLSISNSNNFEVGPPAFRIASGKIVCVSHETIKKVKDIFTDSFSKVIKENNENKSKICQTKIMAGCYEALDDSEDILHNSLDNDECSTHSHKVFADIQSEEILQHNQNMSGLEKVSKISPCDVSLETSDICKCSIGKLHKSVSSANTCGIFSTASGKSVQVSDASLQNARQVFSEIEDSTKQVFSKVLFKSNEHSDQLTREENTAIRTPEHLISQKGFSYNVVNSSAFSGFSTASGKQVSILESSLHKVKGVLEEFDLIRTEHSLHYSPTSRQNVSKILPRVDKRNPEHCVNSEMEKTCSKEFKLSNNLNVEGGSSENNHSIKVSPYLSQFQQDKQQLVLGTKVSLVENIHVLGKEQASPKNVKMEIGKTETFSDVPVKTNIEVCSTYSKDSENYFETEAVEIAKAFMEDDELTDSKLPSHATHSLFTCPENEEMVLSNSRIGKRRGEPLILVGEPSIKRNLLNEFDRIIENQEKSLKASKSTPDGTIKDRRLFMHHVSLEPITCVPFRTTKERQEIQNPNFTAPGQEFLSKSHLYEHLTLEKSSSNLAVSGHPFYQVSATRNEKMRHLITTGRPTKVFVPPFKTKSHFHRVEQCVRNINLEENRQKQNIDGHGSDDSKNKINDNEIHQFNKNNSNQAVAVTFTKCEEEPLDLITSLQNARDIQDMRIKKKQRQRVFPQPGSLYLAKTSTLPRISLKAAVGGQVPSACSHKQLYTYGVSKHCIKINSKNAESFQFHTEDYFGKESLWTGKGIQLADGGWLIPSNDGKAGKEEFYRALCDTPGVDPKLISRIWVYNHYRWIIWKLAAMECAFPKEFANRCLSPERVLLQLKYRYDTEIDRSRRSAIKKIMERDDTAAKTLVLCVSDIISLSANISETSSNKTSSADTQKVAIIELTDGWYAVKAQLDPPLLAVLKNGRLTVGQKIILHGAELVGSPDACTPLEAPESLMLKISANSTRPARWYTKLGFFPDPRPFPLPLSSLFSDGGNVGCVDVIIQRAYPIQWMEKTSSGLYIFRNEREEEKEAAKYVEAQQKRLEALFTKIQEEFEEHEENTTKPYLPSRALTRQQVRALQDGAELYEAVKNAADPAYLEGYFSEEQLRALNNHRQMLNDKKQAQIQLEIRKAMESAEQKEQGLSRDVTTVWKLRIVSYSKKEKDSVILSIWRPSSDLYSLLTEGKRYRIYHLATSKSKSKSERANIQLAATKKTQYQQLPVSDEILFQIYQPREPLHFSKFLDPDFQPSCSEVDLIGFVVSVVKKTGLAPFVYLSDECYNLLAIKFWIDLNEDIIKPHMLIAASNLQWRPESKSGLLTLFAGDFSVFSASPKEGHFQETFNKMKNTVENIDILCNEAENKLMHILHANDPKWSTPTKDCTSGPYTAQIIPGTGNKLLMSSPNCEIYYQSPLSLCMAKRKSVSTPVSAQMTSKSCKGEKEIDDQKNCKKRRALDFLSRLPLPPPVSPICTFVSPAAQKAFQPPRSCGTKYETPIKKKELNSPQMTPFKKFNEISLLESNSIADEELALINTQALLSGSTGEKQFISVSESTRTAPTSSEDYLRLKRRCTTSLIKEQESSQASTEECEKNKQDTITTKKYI

No constants are given. Whether binding was seen depends on the method and setting. Binding seen in cells or lysates may run through a third protein. Some binding calls cover weakened binding; strength is not graded here.

This test concerns the target T1, RNase H1 (human (endogenous in FT-194 fallopian tube epithelial cells)) (UniProt O60930).
T1 sequence: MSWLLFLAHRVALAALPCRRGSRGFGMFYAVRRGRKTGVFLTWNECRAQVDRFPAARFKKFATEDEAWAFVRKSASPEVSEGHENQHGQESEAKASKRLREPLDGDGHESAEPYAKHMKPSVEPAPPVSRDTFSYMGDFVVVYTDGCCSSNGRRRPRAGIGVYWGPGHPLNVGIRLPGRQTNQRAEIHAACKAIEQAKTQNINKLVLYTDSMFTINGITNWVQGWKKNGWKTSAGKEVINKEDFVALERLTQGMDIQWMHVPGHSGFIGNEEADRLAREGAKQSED
Kind of test: proximity ligation; Duolink PLA on fixed (3.7% formaldehyde), permeabilised FTE cells with antibodies against the two endogenous proteins; foci per nucleus; cells with or without DOX-induced BRCA2 knockdown, 0.2 mM HU 4 h, 100 uM DRB 90 min, CDC7i, PARPi, ATRi; single and no antibody controls.

Turning to BRCA2 (from UniProt P51587 1-3418), the binding entry is “binds”.
